# From PubChem BioAssay (EPA / NIEHS)
# Amino acid sequences for entries named in this document (tags omitted). A change or cut given only in a name is not applied to a line headed by its entry.
# UniProt P04629: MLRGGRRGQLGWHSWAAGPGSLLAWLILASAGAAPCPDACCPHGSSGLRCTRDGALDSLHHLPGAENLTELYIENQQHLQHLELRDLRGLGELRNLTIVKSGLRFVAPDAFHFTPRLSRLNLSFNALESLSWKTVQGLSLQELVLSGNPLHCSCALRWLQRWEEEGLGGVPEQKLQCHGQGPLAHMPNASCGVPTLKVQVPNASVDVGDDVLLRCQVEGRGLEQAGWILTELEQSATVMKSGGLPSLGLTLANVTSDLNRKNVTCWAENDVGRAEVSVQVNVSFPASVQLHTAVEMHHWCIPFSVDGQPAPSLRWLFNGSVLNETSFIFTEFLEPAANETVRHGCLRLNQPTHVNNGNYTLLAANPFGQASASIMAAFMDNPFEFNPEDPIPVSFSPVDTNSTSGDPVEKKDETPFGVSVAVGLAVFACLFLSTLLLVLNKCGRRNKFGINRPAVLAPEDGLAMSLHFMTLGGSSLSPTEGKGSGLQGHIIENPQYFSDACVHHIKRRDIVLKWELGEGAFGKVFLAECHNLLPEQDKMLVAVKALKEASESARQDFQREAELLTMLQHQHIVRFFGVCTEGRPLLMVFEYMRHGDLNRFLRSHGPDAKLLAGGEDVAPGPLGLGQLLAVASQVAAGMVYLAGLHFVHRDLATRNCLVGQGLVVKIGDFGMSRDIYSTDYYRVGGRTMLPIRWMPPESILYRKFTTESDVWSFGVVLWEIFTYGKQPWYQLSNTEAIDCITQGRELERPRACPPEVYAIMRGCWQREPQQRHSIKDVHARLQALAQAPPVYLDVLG
# UniProt P17948, whole entry, looked up: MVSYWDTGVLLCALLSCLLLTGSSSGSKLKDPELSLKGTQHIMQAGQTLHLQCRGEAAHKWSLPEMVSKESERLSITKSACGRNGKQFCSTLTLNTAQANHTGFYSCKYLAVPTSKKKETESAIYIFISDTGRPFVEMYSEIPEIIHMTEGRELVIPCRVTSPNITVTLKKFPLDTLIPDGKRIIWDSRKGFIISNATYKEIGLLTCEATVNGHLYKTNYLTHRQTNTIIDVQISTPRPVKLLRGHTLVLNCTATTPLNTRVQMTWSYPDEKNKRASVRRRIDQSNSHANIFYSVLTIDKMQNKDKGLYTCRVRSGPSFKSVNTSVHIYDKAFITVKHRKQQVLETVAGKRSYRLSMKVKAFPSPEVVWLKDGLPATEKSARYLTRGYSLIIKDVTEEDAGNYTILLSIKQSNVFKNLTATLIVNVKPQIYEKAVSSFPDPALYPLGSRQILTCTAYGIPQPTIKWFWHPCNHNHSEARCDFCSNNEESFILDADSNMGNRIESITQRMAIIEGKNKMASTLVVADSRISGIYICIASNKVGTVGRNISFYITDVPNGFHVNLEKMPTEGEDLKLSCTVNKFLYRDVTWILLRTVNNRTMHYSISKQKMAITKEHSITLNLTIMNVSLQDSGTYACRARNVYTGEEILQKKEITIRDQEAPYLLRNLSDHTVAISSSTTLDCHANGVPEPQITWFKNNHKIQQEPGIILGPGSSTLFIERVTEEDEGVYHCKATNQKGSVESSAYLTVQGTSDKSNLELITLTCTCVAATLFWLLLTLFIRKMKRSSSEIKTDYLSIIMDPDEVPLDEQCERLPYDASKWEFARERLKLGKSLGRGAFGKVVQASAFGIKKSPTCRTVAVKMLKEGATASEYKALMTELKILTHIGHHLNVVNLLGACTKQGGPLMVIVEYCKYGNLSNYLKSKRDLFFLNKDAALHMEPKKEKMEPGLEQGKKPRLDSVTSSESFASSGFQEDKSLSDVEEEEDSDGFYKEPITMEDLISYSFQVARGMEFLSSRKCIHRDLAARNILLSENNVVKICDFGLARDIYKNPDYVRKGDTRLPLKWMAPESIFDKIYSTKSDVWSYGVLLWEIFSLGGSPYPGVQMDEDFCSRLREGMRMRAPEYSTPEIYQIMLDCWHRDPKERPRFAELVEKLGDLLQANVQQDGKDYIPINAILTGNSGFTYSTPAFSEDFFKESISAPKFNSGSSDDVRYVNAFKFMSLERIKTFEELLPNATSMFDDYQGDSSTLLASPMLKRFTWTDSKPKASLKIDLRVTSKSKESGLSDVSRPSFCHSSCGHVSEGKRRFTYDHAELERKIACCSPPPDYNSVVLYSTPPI
# Values joined by “and” are separate entries in the source; they are usually repeats but may differ in a detail not shown here. Equal entries are not always repeated. The inconclusive results got no clear call from the source; some entries with a clear call stand among them for comparison. Potencies beside an inconclusive call are fits to weak or partial responses and may not hold up. Active and inactive are the calls of the source. How the source made its calls: active means hit-call score of the fitted dose curve at least 0.9, where 1 is the maximum; inconclusive means response in the unintended direction; inactive means score below 0.9.
# Target: human Tropomyosin Receptor Kinase A (TRKA), NTRK1 (gene 4914) (UniProt P04629)
# Assay: NVS_ENZ_hTrkA: NovaScreen (NVS) Enzymatic Assay for human Tropomyosin Receptor Kinase A (TRKA) (AID 2283224)
# How it was run: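 Recombinant human TrkA activity read after 1 h by fluorescence with electrophoretic mobility shift separating substrate and product. Primary screen in duplicate at 25 uM; actives were rerun in concentration-response up to 50 uM. Loss of signal versus DMSO.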
Structure (SMILES),outcome,AC50
O=C(O)c1cccc(Oc2ccccc2)c1,inactive,–
O=C(c1ccc(O)cc1O)c1ccc(O)cc1O,–,active: 25 µM
Cc1ccccc1Cl,–,inconclusive: 25 µM
O=C(O)C1(C(=O)Nc2ccc(Cl)cc2Cl)CC1,–,inconclusive: 17.7 µM
c1ccc2[nH]c(-c3cscn3)nc2c1,–,active: 8.41 µM
Cc1ccc(N)cc1O,–,inconclusive: 6.91 µM

# Target: human Vascular Endothelial Growth Factor Receptor 1 (VEGFR1), FLT1 (gene 2321) (UniProt P17948)
# Assay: NVS_ENZ_hVEGFR1: NovaScreen (NVS) Enzymatic Assay for human Vascular Endothelial Growth Factor Receptor 1 (VEGFR1) (AID 2283226)
# How it was run: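 Cell-free assay of recombinant human VEGFR1 kinase with substrate, measured 1 h after dosing; fluorescence with electrophoretic mobility-shift separation of substrate and product, referenced to DMSO; primary screen at 25 uM in duplicate, actives then run in concentration series.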
Structure (SMILES),AC50,outcome
O=C(O)c1cccc(Oc2ccccc2)c1,inconclusive: 0.94 µM,–
Cc1cc2c(cc1C(F)(F)F)N(C(=O)Nc1ccc(Oc3cccnc3C)nc1)CC2,–,inactive
O=CN1CCCCC1,inconclusive: 0.364 µM,–
c1ccc(Sc2ccccc2)cc1,inconclusive: 17.7 µM,–
O=C(N[C@H](CO)[C@H](O)c1ccc([N+](=O)[O-])cc1)C(Cl)Cl,inconclusive: 8.65 µM and inconclusive: 6.14 µM,–
O=C(c1ccc(O)cc1O)c1ccc(O)cc1O,active: 25 µM,–
CN(C)C(=O)NC1(c2ccccc2)CCN(CCC[C@]2(c3ccc(Cl)c(Cl)c3)CCCN(C(=O)c3ccccc3)C2)CC1,inconclusive: 1.02 µM,–
CCCOC(=O)c1ccc(O)cc1,–,inactive
CCN(CC)CCNc1ccc(CNC=O)c2sc3ccc(OC)cc3c(=O)c12,inconclusive: 5.21 µM,–
O=CN1CCOCC1,inconclusive: 7.87 µM,–
COCCOCCOCCOCCOC,inconclusive: 0.28 µM,–
Oc1ccc(/C=C/c2cc(O)cc(O)c2)cc1,inconclusive: 10.5 µM,–
O=C1CCCCCCCCCCCN1,inconclusive: 25 µM,–
Cc1ccc(N)c([N+](=O)[O-])c1,inconclusive: 25 µM,–
NC(=O)NNC(N)=O,inconclusive: 6.71 µM,–
S=P(N1CC1)(N1CC1)N1CC1,inconclusive: 6.41 µM,–
CCC(C)C=O (centres undefined),inconclusive: 5.99 µM,–

# Arranged by formula weight (largest number first): some entries from above
Structure (SMILES),AC50,outcome
CN(C)C(=O)NC1(c2ccccc2)CCN(CCC[C@]2(c3ccc(Cl)c(Cl)c3)CCCN(C(=O)c3ccccc3)C2)CC1,inconclusive: 1.02 µM,–
O=C(c1ccc(O)cc1O)c1ccc(O)cc1O,active: 25 µM,–
O=C(O)c1cccc(Oc2ccccc2)c1,inconclusive: 0.94 µM,–

# The list continues.

Structure (SMILES),AC50,outcome
CCCCc1ccc2c(n1)[C@@H](c1ccc(OC)cc1C[C@H](C)C(=O)O)[C@H](C(=O)O)[C@H]2c1ccc2c(c1)OCO2,–,inactive
CC1OC1C1CCC2(C)OC2C1 (centres undefined),inconclusive: 0.00256 µM,–
Nc1ncnc2nc[nH]c12,inconclusive: 0.269 µM,–
CC1OC(=O)C(C)OC1=O (centres undefined),inconclusive: 0.661 µM,–
CC(=O)c1cccnc1,inconclusive: 0.358 µM,–
Cc1ccc(N)cc1O,–,inactive
CCCOC(=O)CCCCC(=O)OCCC,active: 42.3 µM,–
CCO[Si](CCC#N)(OCC)OCC,inconclusive: 25 µM,–
O=C1c2c(O)ccc(Nc3ccc(CCO)cc3)c2C(=O)c2c([N+](=O)[O-])ccc(O)c21,active: 0.885 µM,–
OC1C(O)C(O)C(O)C(O)C1O (centres undefined),inconclusive: 25 µM,–
CC1=CCC2C(=O)OC(=O)C2C1 (centres undefined),inconclusive: 0.00229 µM,–
O=C1CCCC(=O)O1,inconclusive: 5.06 µM,–
N#C[C@@H]1CC(F)(F)CN1C(=O)CNC1CC2CCC(C1)N2c1ncccn1 (some centres undefined),inconclusive: 25 µM,–
CNC(=S)N(C)C,–,inactive
CC1=NN(c2ccccc2)C(=O)C1,inconclusive: 7.73 µM,–
Oc1c(Cl)cc(Cl)c(Cl)c1Cl,inconclusive: 0.308 µM,–
